# Source: PubChem BioAssay (EPA / NIEHS)
# The chains behind the UniProt entries cited, without tags or fusion partners. Where a name states a change or a piece, a line headed by the entry shows the natural chain unless it says otherwise.
# UniProt P10275: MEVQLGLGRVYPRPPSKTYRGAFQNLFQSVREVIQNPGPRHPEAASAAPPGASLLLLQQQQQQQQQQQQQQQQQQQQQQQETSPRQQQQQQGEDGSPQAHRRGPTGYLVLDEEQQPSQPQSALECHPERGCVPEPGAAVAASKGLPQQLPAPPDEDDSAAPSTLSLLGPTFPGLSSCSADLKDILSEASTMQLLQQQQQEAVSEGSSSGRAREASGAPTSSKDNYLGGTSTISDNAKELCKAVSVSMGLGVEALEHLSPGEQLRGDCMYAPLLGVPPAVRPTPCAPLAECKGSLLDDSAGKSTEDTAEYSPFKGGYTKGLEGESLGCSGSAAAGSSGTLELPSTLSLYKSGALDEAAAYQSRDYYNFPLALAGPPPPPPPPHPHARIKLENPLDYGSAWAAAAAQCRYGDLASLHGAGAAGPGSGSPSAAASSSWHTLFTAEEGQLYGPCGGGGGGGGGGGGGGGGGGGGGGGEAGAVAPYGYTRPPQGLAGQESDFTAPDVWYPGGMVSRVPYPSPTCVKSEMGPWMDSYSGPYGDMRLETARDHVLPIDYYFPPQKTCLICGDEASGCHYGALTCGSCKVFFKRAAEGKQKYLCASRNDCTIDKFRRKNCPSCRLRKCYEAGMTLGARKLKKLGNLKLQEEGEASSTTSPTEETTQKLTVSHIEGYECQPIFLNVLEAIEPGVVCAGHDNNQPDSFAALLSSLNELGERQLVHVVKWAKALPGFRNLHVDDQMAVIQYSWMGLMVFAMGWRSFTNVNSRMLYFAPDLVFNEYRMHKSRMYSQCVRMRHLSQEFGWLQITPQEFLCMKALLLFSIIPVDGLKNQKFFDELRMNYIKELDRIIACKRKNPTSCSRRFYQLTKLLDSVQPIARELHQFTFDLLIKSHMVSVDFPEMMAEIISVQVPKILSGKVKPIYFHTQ
# This list was built around the results that the source calls inconclusive (neither active nor inactive); the mix of calls is not that of the screen. Where the call is inconclusive, the potency comes from a doubtful curve fit. Active and inactive are the calls of the source. How the source made its calls: active means hit-call score of the fitted dose curve at least 0.9, where 1 is the maximum; inconclusive means response in the unintended direction; inactive means score below 0.9.
# Target: AR (gene 367) (UniProt P10275)
# Test: ACEA_AR_antagonist_80hr: ACEA Biosciences xCELLigence Real-Time Cell Analysis on Androgen Receptor Antagonism for Proliferation (AID 2283787)
# Description: ACEA_AR_antagonist is a cell-based, single-readout assay that uses 22Rv1, a human prostate cancer cell line, with measurements taken at 80 hours after chemical dosing in a 384-well plate, although TO5 and TO6 (mc0.srcf) used a 96-well plate. Differences in plate size can be ignored given data normalization.ACEA_AR_antagonist_80hr is one of two assay component(s) measured or calculated from the ACEA_AR assay. It is designed to make measurements of real-time cell-growth kinetics, a form of growth reporter, as detected with electrical impedance signals by Real-Time Cell Electrode Sensor (RT-CES) technology.Data from the assay component ACEA_AR_antagonist_80hr was analyzed in the positive analysis fitting direction relative to DMSO as the negative control and baseline of activity. Using a type of growth reporter, measures of the cells for loss-of-signal activity can be used to understand the signaling at the pathway-level as they relate to the gene AR. Furthermore, this assay endpoint can be referred to as a primary readout, because this assay has produced multiple assay endpoints where this one serves a signaling function. To generalize the intended target to other relatable targets, this assay endpoint is annotated to the nuclear receptor intended target family, where the subfamily is steroidal.
# The xCELLigence system Multi-E-Plate stations were used to measure the time-dependent response to chemicals. Each compound was tested in an eight-point, 1:4 serial dilution series starting at a maximum final concentration of 100 uM. A maximum starting concentration of 0.5% DMSO was present in the 100 uM chemical samples and was diluted along with the test article dilution series. The screen was performed in biological duplicate using two separate, 96-well, E-Plates 96 for each dilution series (n = 2). Positive controls (MG132 and testosterone) and a negative control (assay media) were tested in quadruplicate on each testing plate. […] Reference compounds were tested with 8 concentrations with 1:5 serial dilutions. All screening was carried out by ACEA Biosciences, Inc. (San Diego, CA). 22Rv1 cells purchased from ATCC were maintained in media supplemented with 10% fetal bovine serum (FBS). Before screening, 22Rv1 cells were preconditioned in assay medium. Cells were then detached and seeded in E-Plates 96 in assay medium. After overnight monitoring of growth once every hour, compounds were added to […] cells and remained in the medium until the end of the experiment. Cellular responses were then recorded once every 5 min for the first 5 h, and once every hour for an additional 100 h.
Compound,AC50,outcome
COc1cc(/C=C/C(=O)CC(=O)/C=C/c2ccc(O)c(OC)c2)ccc1O,active: 25900 nM,–
OCC1CCCO1 (stereo not given),inconclusive: 16800 nM,–
CCCCCCOc1ccc(O)cc1,active: 13300 nM,–
C1N2CN3CN1CN(C2)C3,inconclusive: 5.76 nM,–
OCc1ccccc1,–,inactive
CC(C)(C)c1cc(O)c(C(C)(C)C)cc1O,inconclusive: 50000 nM,–
CCCCOC(=O)c1ccccc1,inconclusive: 9.09 nM,–
C#CC(O)C(CC)CCCC (stereo not given),inconclusive: 50000 nM,–
CCCCC1CCC(O)CC1 (stereo not given),–,inactive
Cc1cccc(C)c1O,inconclusive: 18.3 nM,–
CCO[Si](CC)(OCC)OCC,inconclusive: 43.7 nM,–
COCC(C)OCC(C)O (stereo not given),inconclusive: 0.61 nM,–
CC(=O)O[C@@H]1CC2CCC1(C)C2(C)C (stereo not given in full),–,inactive
COC(=O)CSc1cc(N=c2sc(=O)n3n2CCCC3)c(F)cc1Cl,–,inactive
CCNc1ccccc1,inconclusive: 0.321 nM,–
CCCCCCCC/C=C\CCCCCCCC(=O)OCC(O)CO (stereo not given),–,inactive
CCCCC(CC)COC(=O)/C=C\C(=O)OCC(CC)CCCC (stereo not given),inconclusive: 1390 nM,–
COc1cc(CCC(=O)CC(=O)CCc2ccc(O)c(OC)c2)ccc1O,active: 74600 nM,–
Cc1ccc(O)cc1,–,inactive
C=CCCCCCCCCCCCC,inconclusive: 28.7 nM,–
OCc1cccc(Oc2ccccc2)c1,inconclusive: 16600 nM,–
CN(C)c1ccc(N=NS(=O)(=O)O)cc1,inconclusive: 10100 nM,–
COc1ccc2c(c1)c(CC(=O)O)c(C)n2C(=O)c1ccc(Cl)cc1,active: 34100 nM,–
Cc1nc(-c2ccccn2)ncc1C(=O)Nn1cc(C)c2cc(F)ccc21,inconclusive: 0.511 nM,–
CN(C)Cc1cc(CN(C)C)c(O)c(CN(C)C)c1,inconclusive: 787 nM,–

# Part of the list above in order of formula weight, rising.
Compound,AC50,outcome
C#CC(O)C(CC)CCCC (stereo not given),inconclusive: 50000 nM,–
CN(C)Cc1cc(CN(C)C)c(O)c(CN(C)C)c1,inconclusive: 787 nM,–
COc1cc(CCC(=O)CC(=O)CCc2ccc(O)c(OC)c2)ccc1O,active: 74600 nM,–
